Test results from paper PMC4601075, “Specific binding of eukaryotic ORC to DNA replication origins depends on highly conserved basic residues” (Scientific Reports, 2015).
For at least one entry, the source does not settle the construct or the ends of the probe. At least one verdict rests on a figure or table, not on a statement of the authors.

System: ORC hexamer wild-type (Orc1-TEV-His/Orc2/3/4/5/6) (Saccharomyces cerevisiae)
Experiment: EMSA
Conditions: 1 mM ATP, GC-rich competitor DNA, 25 mM HEPES-KOH pH 7.6, 100 mM K glutamate, 5 mM Mg acetate, 5 mM CaCl2, 5 mM DTT, 5% glycerol, 0.1% Triton X-100, 2 mg/ml BSA, 1.6 nM dsDNA or 3 nM ssDNA, recombinant protein, protein details: TEV-His on Orc1 (C-terminal by name), label: Cy5-ddUTP (terminal transferase), probe letters rebuilt from the primers and the genome

Sequence	binding result
CCGACGTCAGATCTTAATTTATCTCATGAAGTAATGATACCTCAGCGATGTGCTCGCTCGTTAGTATGCTTCATAAATTCATTATTATTTTTTTTTGGAAGTGTTTTTCGACAAAAGTTGCATTTTTACGAAGGATATGTAAACTCAAGAAGTACTAAATAAATATAAATACAATTCGAAAATTTGAAAAAAGTAGGAGACAACACTTTCCTTCCTCACGAAGAAGTTAAGCTTACATGTGGG (double strand) [ARS306 fragment]	binds
CCCACATGTCAATTTAGTATATTACTGTATATCTAGTTCATTCTTCAAAATAAAGAATGCATAACCATTTTTTTATGTTTTTTCCGGAATTGGCTAAATTCACAAAAAAAAAGAGCATAAAGCGAATTGAATTGTCTCGCCAAGAAAACGCACTGAGAGGACGATTGATCCTCCAGACAAGATCGGAATTTTTACTTTTCTGTTTTTAACGACGTCGG (double strand) [ARS609 fragment]	binds
